PubChem BioAssay AID686943 | Drosophila RNAi Screening Center | 2013
Screen: 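Knockdowns that increase or decrease active ERK after insulin receptor stimulation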 (primary screen). System: Drosophila S2R+ haemocyte-like cells expressing YFP-tagged ERK (Rolled). Reagent: long dsRNA against Drosophila genes. Conditions: insulin stimulation versus unstimulated cells; dose and duration not given. Detection: 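Antibody staining for doubly phosphorylated ERK divided by ERK-YFP signal, as plate z-scores, in insulin-treated and untreated cells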. Scale: replicate 1, z-score of dpERK with insulin and replicate 2, z-score of dpERK with insulin: higher = more active ERK per ERK-YFP after insulin; replicate 1, z-score of dpERK under basal conditions: higher = more basal active ERK per ERK-YFP; replicate 1, z-score of ERK-YFP with insulin: higher = more YFP-tagged ERK signal.
The deposit covers about 23,000 reagents; shown is a random part of those with a known target gene and a result. 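Extra replicates exist only for a retested subset of genes; insulin dose and duration not given; both raised and lowered dpERK matter.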 No sequences are given here. The record does not give: the amount of reagent, the time to read-out.

target | amplicon | replicate 1, z-score of dpERK with insulin | replicate 2, z-score of dpERK with insulin | replicate 1, z-score of dpERK under basal conditions | replicate 1, z-score of ERK-YFP with insulin
babos | DRSC03923 | 0.6 | -0.28 | 0.51 | -0.58
babos | DRSC04397 | -0.69 | 0.63 | 1.07 | 0.3
CG32631 | DRSC19768 | -1.03 | -0.3 | 2.81 | -0.53
unc80 | DRSC15329 | 0.69 | -0.07 | 0.56 | -0.01
CG14069 | DRSC02372 | -0.18 | -0.55 | 0.46 | 0.03
frm | DRSC09753 | 0.65 | 0.91 | -0.99 | -0.23
Caper | DRSC02137 | 1.33 | -0.2 | 0.96 | -0.65
CG34325 | DRSC19802 | 0.18 | -0.5 | -0.22 | 0.18
CG34325 | DRSC20200 | -0.11 | 0.17 | -0.23 | -0.18
rgn | DRSC11609 | -0.54 | -0.11 | 0.14 | 0.43
Spn28B | DRSC02982 | 0.38 | 0.15 | 0.77 | -1.31
Polr2G | DRSC16068 | 3.59 | 2.81 | 4.22 | -2.09
fok | DRSC02103 | 1.04 | -0.37 | -1.87 | -0.74
nahoda | DRSC03954 | -0.13 | -0.09 | 0.32 | 1.91
nahoda | DRSC04126 | 0.34 | 0.31 | 0.27 | -1.12
AIMP2 | DRSC09877 | -0.17 | 0.71 | 0.6 | 0.65
Cyp304a1 | DRSC16623 | 0.39 | -1.32 | -0.5 | 0.08
Polr2L | DRSC14630 | 5.41 | 2.56 | -3.26 | -1.09
CG10154 | DRSC09707 | 0.17 | 0.3 | -0.7 | 0.4
Tsp74F | DRSC10508 | -0.39 | -0.34 | -0.82 | 0.15
CG42340 | DRSC17458 | 0.42 | -1.34 | -0.02 | 0.17
CG42340 | DRSC17841 | 1.03 | -1.53 | 0.68 | -0.1
CG42340 | DRSC18305 | 1.36 | 0 | -0.99 | -1.12
CG42340 | DRSC21619 | 0.35 | -0.31 | 0.53 | -0.77

A few values from the entries so far:
Polr2G [DRSC16068], replicate 1, z-score of dpERK under basal conditions = 4.22
Value for CG34325 [DRSC20200] in “replicate 1, z-score of dpERK under basal conditions”: -0.23
CG10154 [DRSC09707], replicate 1, z-score of dpERK with insulin → 0.17
Value for Cyp304a1 [DRSC16623] under “replicate 1, z-score of ERK-YFP with insulin”: 0.08
